Where a name gives a salt, the structure may show the parent alone. Some of these results come from one statement about several compounds together. Some compounds share one range, which may span the group rather than tell each member.
Experiments:
[1] = system: M catarrhalis and H. influenzae; assay: MIC against some strains of gram negative pathogens; format: cell-based
Method: (§1) Compounds of the present invention were assayed for antibacterial activity against a range of pathogenic organisms (strains of S aureus, S pneumoniae, E faecalis, H influenzae and M catarrhalis) in a standard MIC assay modified by the inclusion of cyclodextrin, to assist with solubility.

[2] = system: S. aureus, S. pneumoniae, and E. faecalis; assay: MIC against some strains of gram positive pathogens; format: cell-based
Method: as §1

Cc1c(CNCCCNc2nc3nnccc3[nH]2)sc(C2CC2)c1Br [Example 11, N-(4-Bromo-5-cyclopropyl-3-methylthiophen-2-ylmethyl)-N′-(5H-imidazo[4,5-c]pyridazin-6-yl)propane-1,3-diamine dihydrochloride]
improvement in potency against two major gram negative pathogens, multiple compared to the thiophenes in the prior art [1]: 10–500

Cc1c(CNCCCNc2nc3nnccc3[nH]2)sc(C(F)(F)F)c1Br [Example 12, N-(4-bromo-3-methyl-5-trifluoromethylthiophen-2-ylmethyl)-N′-(5H-imidazo[4,5-c]pyridazin-6-yl)propane-1,3-diamine dihydrochloride]
improvement in potency against two major gram negative pathogens, multiple compared to the thiophenes in the prior art [1]: 10–500
improvement in potency against the major gram positive pathogens, multiple compared to the thiophenes in the prior art [2]: 10–50

C=Cc1sc(CNCCCNc2nc3nnccc3[nH]2)c(C)c1Br [Example 13, N-(4-bromo-3-methyl-5-vinylthiophen-2-ylmethyl)-N′-(5H-imidazo[4,5-c]pyridazin-6-yl)propane-1,3-diamine dihydrochloride]
improvement in potency against two major gram negative pathogens, multiple compared to the thiophenes in the prior art [1]: 10–500
improvement in potency against the major gram positive pathogens, multiple compared to the thiophenes in the prior art [2]: 10–50

C=C(F)c1sc(CNCCCNc2nc3nnccc3[nH]2)c(C)c1Br [Example 14, N-(4-bromo-5-(1-fluorovinyl)-3-methylthiophen-2-ylmethyl)-N′-(5H-imidazo[4,5-c]pyridazin-6-yl)propane-1,3-diamine dihydrochloride]
improvement in potency against two major gram negative pathogens, multiple compared to the thiophenes in the prior art [1]: 10–500
improvement in potency against the major gram positive pathogens, multiple compared to the thiophenes in the prior art [2]: 10–50

C#Cc1sc(CNCCCNc2nc3nnccc3[nH]2)c(C)c1Br [Example 15, N-(4-bromo-5-ethynyl-3-methylthiophen-2-ylmethyl)-N′-(5H-imidazo[4,5-c]pyridazin-6-yl)propane-1,3-diamine dihydrochloride]
improvement in potency against two major gram negative pathogens, multiple compared to the thiophenes in the prior art [1]: 10–500

From patent US7030137B2, “Substituted thiophenes with antibacterial activity” (Replidyne, Inc., priority 2003, dated 2006)
